Experimental data published in PubChem BioAssay AID504467 (National Center for Advancing Translational Sciences (NCATS), 2011).
Among all 330,000 compounds or so, about 7,700 (2.3%) were called active. The inconclusive results got no clear call from the source; some entries with a clear call stand among them for comparison. Calls come from the whole dose curve; as a rule, active = well fitted inhibition curve with a large enough effect; inconclusive = small, poorly fitted or top-dose-only effect, or effect the other way; inactive = flat fitted curve, though single readings scatter. A potency beside an inconclusive call is a rough fit, not a confirmed value.

test: qHTS screen for small molecules that inhibit ELG1-dependent DNA repair in human embryonic kidney (HEK293T) cells expressing luciferase-tagged ELG1; conditions: HEK293T ELG1-luciferase reporter, luminescence, 16 h, DNA damage induced by 5-fluorouridine; activity change, negative = inhibition: at 46.1 µM (top of the series); note: nearly all actives have a fitted effect of over 55% in size
Procedure, shortened: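 Overnight (16 hr) co-exposure of 2,000 cells/well to 5-fluorouridine and compound at 37 °C preceded detection. Luciferase was quantified via ONE-Glo luminescence; loss of signal denotes inhibition.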
% is set by controls: 0 for no effect and ±100 for the full control effect; potency is the fitted concentration of half-maximal effect.

SMILES | activity change, negative = inhibition | Potency
CCC1Oc2ccccc2N(CC(=O)NCC2CCCO2)C1=O (stereo unspecified) | inactive: -0.772% | 
O=C(c1ccc(C#CC2(O)CCCCC2)cc1)N1CCN(Cc2ccccc2)CC1 |  | inconclusive: 29.1 µM [inhibitor, single point]
N/C(=N\OC(=O)CCC1CCCCC1)c1cccnc1 |  | inconclusive: 18.4 µM [activator, single point]
CN(C)c1ccc(NC(=O)COC(=O)Cn2nnc3ccccc32)cc1 |  | inconclusive: 20.6 µM [activator, partial curve, poor fit]
Cc1cccc2sc(NC(=O)C3CCCO3)nc12 (stereo unspecified) |  | inconclusive: 14.6 µM [activator, partial curve]
CN(C)/N=C/c1ccc(N2CCOCC2)cc1 |  | inconclusive: 16.4 µM [activator, partial curve]
FC(F)(F)c1ccc(/C=N/N2CCN(Cc3cccc4ccccc34)CC2)cc1 | inactive: 11.6% | 
O=C1OCCN1C(=O)[C@H]1[C@H](c2ccccc2)C(c2ccccc2)=NN1c1ccccc1 | inactive: 1.19% | 
Cc1ccc(S(=O)(=O)N(C)C)cc1NC(=O)CCCNC(=O)c1ccc(Cl)cc1 | inactive: 1.21% | 
CCCc1noc2c1/C(=N\O)CC(c1ccccc1)C2 (stereo unspecified) |  | inconclusive: 16.4 µM [activator, single point]
ClC(Cl)(Cl)c1nc2ccccc2n2nncc12 |  | inconclusive: 14.6 µM [inhibitor, single point]
CCOC(=O)c1sc2nc(-c3ccco3)c3c(c2c1N)CC(C)(C)OC3 |  | inconclusive: 20.6 µM [inhibitor, single point]
COc1ccc(NC(=O)C2CC2)cc1S(=O)(=O)N1CCOCC1 | inactive: 23.4% | 
CN(C)C(CNC(C(=O)Nc1ccc(F)cc1)c1ccccc1)c1ccccc1 (stereo unspecified) | inactive: 18.5% | 
CS(=O)(=O)N1CCN(c2ccc(NC(=O)c3ccccc3)cc2)CC1 |  | inconclusive: 5.17 µM [activator, partial curve]
COc1ccc(NCC(=O)N/N=C/c2ccc3c(c2)OCCO3)cc1 | inactive: -0.969% | 
COc1ccc(OCCCC(=O)Nc2cc(S(=O)(=O)N3CCCCC3)ccc2C)cc1 |  | inconclusive: 29.1 µM [inhibitor, single point]
CC(CC(=O)NCc1ccco1)S(=O)(=O)c1ccc2c(c1)CCN2C(=O)C1CC1 (stereo unspecified) | inactive: -20.5% | 
CCn1nc(C)c(/C=N/NC(=O)c2nc3nc(C)cc(C)n3n2)c1C | inactive: -0.822% | 
CC1(C)CC2(CC(c3ccccc3)Oc3cc(O)ccc32)NC(=O)N1 (stereo unspecified) | inactive: -13.6% | 
Cc1noc(C)c1S(=O)(=O)N1CCC(C(=O)Nc2ccc(OC(F)(F)F)cc2)CC1 |  | inconclusive: 29.1 µM [inhibitor, single point]
Cn1nnnc1Sc1ncnc2scc(-c3cccc4ccccc34)c12 |  | inconclusive: 29.1 µM [inhibitor, single point]
Cc1sc2ncnc(NCC3(N4CCOCC4)CCCCC3)c2c1C |  | inconclusive: 29.1 µM [inhibitor, single point]

SMILES | activity change, negative = inhibition | Potency
COCCNc1cc(-c2ccccc2)nc2cc(-c3cccc(F)c3)nn12 |  | active: 18.3 µM
COc1ccccc1-c1ccc(/C=C2\C=CC(=O)O2)o1 |  | inconclusive: 23.1 µM [activator, single point]
CN(C(=O)/C(N=Nc1cccc(C(F)(F)F)c1)=C(\O)C(F)(F)F)c1ccccc1 |  | inconclusive: 18.4 µM [inhibitor, single point]
CC(=O)Nc1cccc(C(=O)OCC(=O)NCc2ccc(F)cc2)c1 | inactive: 17% | 
Cc1ccc(NCc2nc3ccccc3n2CCOc2ccccc2)cc1 |  | inconclusive: 16.4 µM [activator, partial curve]
Cc1ccc(/C(CSc2nccn2-c2ncc(C(F)(F)F)cc2Cl)=N\O)cc1 | inactive: -4.91% | 
N#Cc1c(-c2ccc(Cl)cc2)ccnc1N1CCOCC1 |  | inconclusive: 25.9 µM [activator, single point]
CCc1nc(SCC(=O)N2CCC(C)CC2)c2c(=O)n(C)c(=O)n(C)c2n1 |  | active: 20.6 µM
Clc1ccc(-c2nnc(NC3=NCCCCC3)o2)cc1 |  | inconclusive: 0.231 µM [activator, full curve]
Cc1ccc(C)c(S(=O)(=O)N=Nc2c(O)[nH]c3ccccc23)c1 | inactive: 13.2% | 
Cc1ccc(Nc2cc(C(=O)NCCCN3CCOCC3)c3ccccc3n2)cc1C |  | inconclusive: 14.6 µM [activator, partial curve]
O=C(NN=C1CCCC1)c1[nH]c2ccc(Cl)cc2c1-c1ccccc1 |  | inconclusive: 29.1 µM [inhibitor, single point]
COc1ccc(/C=C/C(=O)NC(=S)N2CCOCC2)cc1 |  | inconclusive: 20.6 µM [activator, partial curve]
COc1ccc(CCN2C(=O)CSC2c2ccc(F)cc2)cc1 (stereo unspecified) |  | inconclusive: 23.1 µM [inhibitor, partial curve, poor fit]
COc1ccccc1CC(=O)N1CCN(C(=O)c2ccco2)CC1 | inactive: 3.7% | 
CCOc1cc(C2/C(=C(/O)c3ccc(OC(C)C)cc3)C(=O)C(=O)N2CCCOC)ccc1O (stereo unspecified) |  | inconclusive: 20.6 µM [activator, partial curve]
COc1ccc2c(CC(=O)Nc3ccccc3OC)coc2c1 |  | inconclusive: 0.651 µM [inhibitor, single point]
CCC(C(=O)NCc1ccco1)N(C(=O)CNS(=O)(=O)c1ccccc1)c1ccccc1C (stereo unspecified) | inactive: -1.54% | 
COc1ccccc1CNC(=O)COC(=O)C1CCN(c2ccc(C(F)(F)F)cn2)CC1 | inactive: -2.02% | 
O=C(CCCCCn1c(=S)[nH]c2ccc(N3CCOCC3)cc2c1=O)NCCc1ccccc1 |  | inconclusive: 29.1 µM [activator, single point]
COc1ccc2c(c1OC)C(=O)N(c1cccc(/C=C/C(=O)O)c1)C2 |  | inconclusive: 23.1 µM [activator, partial curve]
O=C(CNC(=O)c1ccccc1)N/N=C/c1ccc([N+](=O)[O-])o1 |  | inconclusive: 5.8 µM [inhibitor, partial curve, poor fit]
CCC(=O)NC(Nc1sc2c(c1C(=O)OC)CCC2)C(Cl)(Cl)Cl (stereo unspecified) |  | inconclusive: 29.1 µM [inhibitor, single point]

Three compounds already listed, ordered by length of the SMILES, low to high.
SMILES | activity change, negative = inhibition | Potency
COc1ccc2c(CC(=O)Nc3ccccc3OC)coc2c1 |  | inconclusive: 0.651 µM [inhibitor, single point]
O=C(c1ccc(C#CC2(O)CCCCC2)cc1)N1CCN(Cc2ccccc2)CC1 |  | inconclusive: 29.1 µM [inhibitor, single point]
Cc1ccc(/C(CSc2nccn2-c2ncc(C(F)(F)F)cc2Cl)=N\O)cc1 | inactive: -4.91% | 
